According to the supplement of paper PMC12819154, “High-throughput peptide-centric local stability assay extends protein–ligand identification to membrane proteins, tissues and bacteria” (Nature Structural & Molecular Biology, 2025):
The other results are listed elsewhere or left out. Most entries show no effect beyond the scatter of the controls.

Amino acid sequences for entries named in this document (tags omitted). A change or cut given only in a name is not applied to a line headed by its entry.
UniProt Q14696: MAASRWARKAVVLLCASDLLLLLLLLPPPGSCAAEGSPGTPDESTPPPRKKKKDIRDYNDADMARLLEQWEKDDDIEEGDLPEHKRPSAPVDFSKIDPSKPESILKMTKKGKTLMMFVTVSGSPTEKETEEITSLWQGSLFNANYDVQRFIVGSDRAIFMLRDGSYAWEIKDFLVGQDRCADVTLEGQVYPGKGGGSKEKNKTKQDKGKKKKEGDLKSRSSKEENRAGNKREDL
UniProt Q13868, whole entry: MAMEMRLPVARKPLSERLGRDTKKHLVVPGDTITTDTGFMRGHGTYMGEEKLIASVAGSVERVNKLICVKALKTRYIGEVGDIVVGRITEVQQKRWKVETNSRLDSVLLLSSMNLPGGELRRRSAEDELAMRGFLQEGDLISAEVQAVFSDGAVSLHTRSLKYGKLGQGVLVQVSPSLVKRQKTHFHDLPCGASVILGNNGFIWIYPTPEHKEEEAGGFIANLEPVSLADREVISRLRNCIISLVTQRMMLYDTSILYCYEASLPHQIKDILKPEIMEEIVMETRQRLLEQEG
UniProt Q13506: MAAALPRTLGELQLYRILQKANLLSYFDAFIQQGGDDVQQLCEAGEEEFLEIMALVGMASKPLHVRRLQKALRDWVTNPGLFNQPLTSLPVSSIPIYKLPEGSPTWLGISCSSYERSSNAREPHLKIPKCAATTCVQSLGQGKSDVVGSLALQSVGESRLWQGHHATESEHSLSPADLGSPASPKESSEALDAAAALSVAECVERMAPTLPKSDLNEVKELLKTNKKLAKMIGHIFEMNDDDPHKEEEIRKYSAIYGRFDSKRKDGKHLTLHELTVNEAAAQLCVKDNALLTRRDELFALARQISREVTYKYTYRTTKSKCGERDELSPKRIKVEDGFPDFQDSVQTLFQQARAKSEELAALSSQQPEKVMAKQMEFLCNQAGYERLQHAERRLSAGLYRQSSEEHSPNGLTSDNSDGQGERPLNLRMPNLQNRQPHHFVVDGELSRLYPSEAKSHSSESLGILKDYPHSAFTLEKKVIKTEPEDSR
UniProt Q14999: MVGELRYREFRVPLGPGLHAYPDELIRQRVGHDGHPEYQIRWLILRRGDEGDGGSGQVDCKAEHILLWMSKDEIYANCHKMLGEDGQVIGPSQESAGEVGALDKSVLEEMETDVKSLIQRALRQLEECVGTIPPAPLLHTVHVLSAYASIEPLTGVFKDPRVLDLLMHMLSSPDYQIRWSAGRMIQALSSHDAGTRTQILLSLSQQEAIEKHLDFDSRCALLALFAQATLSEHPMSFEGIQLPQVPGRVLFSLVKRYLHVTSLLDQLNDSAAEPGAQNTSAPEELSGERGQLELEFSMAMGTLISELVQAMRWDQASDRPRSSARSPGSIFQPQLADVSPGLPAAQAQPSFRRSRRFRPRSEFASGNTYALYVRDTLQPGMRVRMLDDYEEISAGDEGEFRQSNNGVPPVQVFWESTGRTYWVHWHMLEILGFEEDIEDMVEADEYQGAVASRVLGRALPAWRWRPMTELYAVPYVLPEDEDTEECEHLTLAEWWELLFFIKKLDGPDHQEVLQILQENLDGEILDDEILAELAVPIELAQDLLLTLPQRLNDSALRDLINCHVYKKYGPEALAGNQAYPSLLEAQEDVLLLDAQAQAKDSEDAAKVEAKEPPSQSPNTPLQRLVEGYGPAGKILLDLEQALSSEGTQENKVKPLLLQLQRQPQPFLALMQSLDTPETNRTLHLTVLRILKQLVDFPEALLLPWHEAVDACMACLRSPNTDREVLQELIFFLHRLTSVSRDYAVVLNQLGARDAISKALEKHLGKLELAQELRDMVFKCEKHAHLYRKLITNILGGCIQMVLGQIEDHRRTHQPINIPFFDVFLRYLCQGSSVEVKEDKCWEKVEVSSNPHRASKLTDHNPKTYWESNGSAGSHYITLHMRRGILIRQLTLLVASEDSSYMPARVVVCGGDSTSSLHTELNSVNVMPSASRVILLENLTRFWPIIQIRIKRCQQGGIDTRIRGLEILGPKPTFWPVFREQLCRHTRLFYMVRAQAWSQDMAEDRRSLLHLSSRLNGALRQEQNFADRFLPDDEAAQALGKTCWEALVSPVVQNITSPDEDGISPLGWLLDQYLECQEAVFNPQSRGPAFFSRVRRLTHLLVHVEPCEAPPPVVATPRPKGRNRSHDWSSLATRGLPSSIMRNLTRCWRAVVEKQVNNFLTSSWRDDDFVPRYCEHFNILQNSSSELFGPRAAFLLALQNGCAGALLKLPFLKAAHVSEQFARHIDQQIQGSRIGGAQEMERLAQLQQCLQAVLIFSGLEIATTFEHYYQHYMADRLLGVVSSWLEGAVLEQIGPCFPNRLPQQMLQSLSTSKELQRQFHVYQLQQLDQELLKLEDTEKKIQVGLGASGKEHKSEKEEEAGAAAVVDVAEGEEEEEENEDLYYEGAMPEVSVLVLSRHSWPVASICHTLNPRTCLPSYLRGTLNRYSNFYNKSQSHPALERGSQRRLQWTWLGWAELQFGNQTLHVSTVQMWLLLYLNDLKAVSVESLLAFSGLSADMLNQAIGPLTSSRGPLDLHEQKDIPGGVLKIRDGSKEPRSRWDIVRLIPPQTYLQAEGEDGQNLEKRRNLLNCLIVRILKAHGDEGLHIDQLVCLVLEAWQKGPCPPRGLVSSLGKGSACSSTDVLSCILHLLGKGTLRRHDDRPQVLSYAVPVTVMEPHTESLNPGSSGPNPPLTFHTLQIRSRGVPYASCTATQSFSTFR
UniProt Q13905: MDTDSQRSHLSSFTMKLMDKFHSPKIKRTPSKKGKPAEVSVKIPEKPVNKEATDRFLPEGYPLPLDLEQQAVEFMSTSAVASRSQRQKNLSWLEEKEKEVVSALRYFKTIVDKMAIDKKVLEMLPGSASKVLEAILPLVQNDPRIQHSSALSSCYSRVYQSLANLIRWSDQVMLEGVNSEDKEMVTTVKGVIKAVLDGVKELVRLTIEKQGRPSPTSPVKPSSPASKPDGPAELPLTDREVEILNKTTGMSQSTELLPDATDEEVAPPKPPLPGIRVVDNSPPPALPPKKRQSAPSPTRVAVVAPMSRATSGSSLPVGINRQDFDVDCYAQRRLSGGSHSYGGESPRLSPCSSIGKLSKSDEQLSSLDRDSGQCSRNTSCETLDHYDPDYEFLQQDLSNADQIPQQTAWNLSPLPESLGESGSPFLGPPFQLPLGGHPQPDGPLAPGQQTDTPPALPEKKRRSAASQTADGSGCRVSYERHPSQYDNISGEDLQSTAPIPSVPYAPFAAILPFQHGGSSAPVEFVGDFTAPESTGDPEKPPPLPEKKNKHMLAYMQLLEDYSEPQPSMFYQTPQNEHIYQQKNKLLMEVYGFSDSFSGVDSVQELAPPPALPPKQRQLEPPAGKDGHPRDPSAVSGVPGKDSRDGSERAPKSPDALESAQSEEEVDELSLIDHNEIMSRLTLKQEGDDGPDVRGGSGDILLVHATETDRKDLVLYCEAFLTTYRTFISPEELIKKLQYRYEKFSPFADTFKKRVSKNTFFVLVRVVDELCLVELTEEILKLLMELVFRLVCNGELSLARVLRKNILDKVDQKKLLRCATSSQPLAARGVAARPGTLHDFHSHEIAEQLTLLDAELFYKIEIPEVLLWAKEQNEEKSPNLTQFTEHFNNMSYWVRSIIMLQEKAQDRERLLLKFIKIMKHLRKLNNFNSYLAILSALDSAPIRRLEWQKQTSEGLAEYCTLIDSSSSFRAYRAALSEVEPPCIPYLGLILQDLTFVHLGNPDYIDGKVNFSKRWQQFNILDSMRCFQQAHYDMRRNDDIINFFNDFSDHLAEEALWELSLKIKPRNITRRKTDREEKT
UniProt Q13643: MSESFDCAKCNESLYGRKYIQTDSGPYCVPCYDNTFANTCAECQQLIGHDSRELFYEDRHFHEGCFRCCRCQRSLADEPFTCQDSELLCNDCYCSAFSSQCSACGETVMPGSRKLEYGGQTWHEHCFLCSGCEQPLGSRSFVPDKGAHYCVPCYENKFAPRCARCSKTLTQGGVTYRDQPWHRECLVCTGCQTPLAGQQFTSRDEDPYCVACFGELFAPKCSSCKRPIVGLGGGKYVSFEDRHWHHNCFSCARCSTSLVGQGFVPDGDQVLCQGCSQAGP
UniProt Q13287: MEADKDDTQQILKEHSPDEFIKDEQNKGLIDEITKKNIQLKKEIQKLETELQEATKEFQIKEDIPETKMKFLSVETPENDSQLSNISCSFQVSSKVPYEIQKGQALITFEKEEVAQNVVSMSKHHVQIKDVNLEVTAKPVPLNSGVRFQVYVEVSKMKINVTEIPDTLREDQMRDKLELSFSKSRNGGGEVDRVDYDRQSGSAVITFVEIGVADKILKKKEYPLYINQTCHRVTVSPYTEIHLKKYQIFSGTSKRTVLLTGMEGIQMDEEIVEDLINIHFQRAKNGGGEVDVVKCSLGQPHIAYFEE
UniProt Q13601: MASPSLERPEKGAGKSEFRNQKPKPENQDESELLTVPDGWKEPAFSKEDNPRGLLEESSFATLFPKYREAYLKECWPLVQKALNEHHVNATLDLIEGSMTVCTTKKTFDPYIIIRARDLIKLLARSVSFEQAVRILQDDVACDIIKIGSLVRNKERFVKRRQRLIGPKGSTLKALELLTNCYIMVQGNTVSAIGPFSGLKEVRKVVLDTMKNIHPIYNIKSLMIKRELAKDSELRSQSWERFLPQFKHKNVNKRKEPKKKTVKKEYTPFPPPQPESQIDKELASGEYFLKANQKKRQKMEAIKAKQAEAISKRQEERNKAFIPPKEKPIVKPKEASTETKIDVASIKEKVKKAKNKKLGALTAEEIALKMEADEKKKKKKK
UniProt Q13547, whole entry: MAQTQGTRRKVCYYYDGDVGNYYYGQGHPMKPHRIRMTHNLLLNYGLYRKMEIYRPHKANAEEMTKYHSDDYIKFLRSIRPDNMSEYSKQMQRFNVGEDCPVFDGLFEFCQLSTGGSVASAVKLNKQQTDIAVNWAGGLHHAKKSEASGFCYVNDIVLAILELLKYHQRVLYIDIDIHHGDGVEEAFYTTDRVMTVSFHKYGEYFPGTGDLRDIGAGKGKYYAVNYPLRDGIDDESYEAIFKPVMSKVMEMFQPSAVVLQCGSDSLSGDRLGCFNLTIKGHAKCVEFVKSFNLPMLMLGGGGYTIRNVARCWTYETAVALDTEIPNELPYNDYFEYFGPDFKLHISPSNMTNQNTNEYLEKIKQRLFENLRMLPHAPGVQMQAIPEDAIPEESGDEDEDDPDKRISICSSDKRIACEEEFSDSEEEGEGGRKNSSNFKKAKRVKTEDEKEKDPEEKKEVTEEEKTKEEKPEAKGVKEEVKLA
UniProt Q13487, whole entry: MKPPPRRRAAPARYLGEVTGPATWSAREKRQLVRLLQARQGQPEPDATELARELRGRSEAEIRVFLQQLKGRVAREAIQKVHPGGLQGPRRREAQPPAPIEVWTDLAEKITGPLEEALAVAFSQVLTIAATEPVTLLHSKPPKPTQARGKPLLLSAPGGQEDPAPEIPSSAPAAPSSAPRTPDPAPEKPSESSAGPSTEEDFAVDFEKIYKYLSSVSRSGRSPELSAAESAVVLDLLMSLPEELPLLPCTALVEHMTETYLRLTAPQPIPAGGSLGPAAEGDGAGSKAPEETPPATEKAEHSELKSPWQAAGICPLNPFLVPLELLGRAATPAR
UniProt Q14527: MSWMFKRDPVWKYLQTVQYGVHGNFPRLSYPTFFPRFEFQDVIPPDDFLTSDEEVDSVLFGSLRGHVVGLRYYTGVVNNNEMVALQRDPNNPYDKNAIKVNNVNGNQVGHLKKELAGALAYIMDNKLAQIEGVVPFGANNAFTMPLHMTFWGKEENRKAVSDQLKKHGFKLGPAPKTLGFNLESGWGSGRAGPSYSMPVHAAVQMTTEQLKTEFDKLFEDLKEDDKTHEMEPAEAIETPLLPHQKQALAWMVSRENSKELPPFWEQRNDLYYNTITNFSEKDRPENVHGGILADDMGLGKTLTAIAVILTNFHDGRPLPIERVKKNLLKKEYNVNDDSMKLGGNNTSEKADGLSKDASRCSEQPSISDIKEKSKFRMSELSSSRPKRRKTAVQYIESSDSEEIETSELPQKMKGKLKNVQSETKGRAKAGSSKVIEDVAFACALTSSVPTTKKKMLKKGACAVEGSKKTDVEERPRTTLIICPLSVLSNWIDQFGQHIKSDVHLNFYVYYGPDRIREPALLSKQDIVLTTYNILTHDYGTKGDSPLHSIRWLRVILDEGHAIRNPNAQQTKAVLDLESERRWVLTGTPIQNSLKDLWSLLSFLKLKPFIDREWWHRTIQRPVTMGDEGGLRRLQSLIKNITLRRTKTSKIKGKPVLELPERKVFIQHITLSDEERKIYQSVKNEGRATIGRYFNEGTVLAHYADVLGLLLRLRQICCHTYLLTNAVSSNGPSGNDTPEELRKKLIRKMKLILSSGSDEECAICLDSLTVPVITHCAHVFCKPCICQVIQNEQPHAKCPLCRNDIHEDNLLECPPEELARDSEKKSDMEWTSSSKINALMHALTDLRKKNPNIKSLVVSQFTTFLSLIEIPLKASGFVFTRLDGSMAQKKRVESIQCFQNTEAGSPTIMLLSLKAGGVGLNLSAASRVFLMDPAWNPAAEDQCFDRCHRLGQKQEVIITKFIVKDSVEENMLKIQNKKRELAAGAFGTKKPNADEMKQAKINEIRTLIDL

Each target was assayed with CN[C@@H]1C[C@H]2O[C@@](C)([C@@H]1OC)n1c3ccccc3c3c4c(c5c6ccccc6n2c5c31)C(=O)NC4 [staurosporine] (assay: log2 fold change of tryptic peptide abundance, ligand vs vehicle (limited proteolysis) (log2 ratio); higher = more trypsin-susceptible (destabilized)). Conditions: ligand concentration: 20 uM; sample: K562 cleared lysate; digestion: 4 min, 22 C (HT-PELSA RT4min, Orbitrap Astral).
“COX17 (peptide sequence: KPLKPCCACPETK, peptide start residue: 18) (UniProt Q14061)” showed a log2 fold change of -0.322. With “UniProt Q14696 (peptide sequence: LLEQWEKDDDIEEGDLPEHK, peptide start residue: 66)” the log2 fold change was -0.103. For “KLF1 (peptide sequence: APDAFVGPALAPAPAPEPK, peptide start residue: 144) (UniProt Q13351)”, the log2 fold change was 0.59. “EXOSC2 (peptide sequence: GHGTYMGEEK, peptide start residue: 42) (UniProt Q13868)” was tested, and the log2 fold change was 0.232. With “NAB1 (peptide sequence: DYPHSAFTLEK, peptide start residue: 466) (UniProt Q13506)” the log2 fold change was -0.291. With “CUL7 (peptide sequence: SQSHPALER, peptide start residue: 1432) (UniProt Q14999)” the log2 fold change was 0.858. “MTA1 (peptide sequence: SNMSPHGLPAR, peptide start residue: 446) (UniProt Q13330)” showed a log2 fold change of 0.667. “RAPGEF1 (peptide sequence: VLEAILPLVQNDPR, peptide start residue: 131) (UniProt Q13905)” gave a log2 fold change of 0.495. In the case of “UniProt Q14565 (peptide sequence: IIFIDTENTFRPDR, peptide start residue: 156)”, the log2 fold change is reported as -0.282. In the case of “NUMA1 (peptide sequence: AEVSKLEQQCQK, peptide start residue: 1127) (UniProt Q14980)”, the log2 fold change is reported as -0.176. “FHL3 (peptide sequence: HFHEGCFRCCR, peptide start residue: 60) (UniProt Q13643)” showed a log2 fold change of -0.216. With “NMI (peptide sequence: EHSPDEFIKDEQNK, peptide start residue: 14) (UniProt Q13287)” the log2 fold change was -0.173. “KRR1 (peptide sequence: KTFDPYIIIR, peptide start residue: 106) (UniProt Q13601)” was tested, and the log2 fold change was 0.715. “UniProt Q14590 (peptide sequence: SHLQAHER, peptide start residue: 416)” gave a log2 fold change of 0.246. Work on “ITPR3 (peptide sequence: LQHAAQMEQK, peptide start residue: 93) (UniProt Q14573)” yielded a log2 fold change of 0.807. Target “SNW1 (peptide sequence: GYTIPLDKR, peptide start residue: 259) (UniProt Q13573)” has a log2 fold change of 0.216. “PDCL (peptide sequence: FKQLETEQREEQCR, peptide start residue: 69) (UniProt Q13371)” gave a log2 fold change of -0.23. Target “HDAC1 (peptide sequence: YYAVNYPLR, peptide start residue: 221) (UniProt Q13547)” has a log2 fold change of -0.301. “SNAPC2 (peptide sequence: VFLQQLK, peptide start residue: 64) (UniProt Q13487)” showed a log2 fold change of 0.147. Work on “HLTF (peptide sequence: LSYPTFFPR, peptide start residue: 28) (UniProt Q14527)” yielded a log2 fold change of 0.29. With “KIAA0100 (peptide sequence: SDLNMQQQEEEEKAR, peptide start residue: 2199) (UniProt Q14667)” the log2 fold change was -0.343. For “UniProt Q14586 (peptide sequence: HGSCDLENLHLR, peptide start residue: 103)”, the log2 fold change was 0.328. With “ILK (peptide sequence: ICMNEDPAK, peptide start residue: 427) (UniProt Q13418)” the log2 fold change was -0.322. Target “PWP1 (peptide sequence: IWDILGDRPSLVHSR, peptide start residue: 412) (UniProt Q13610)” has a log2 fold change of 0.491. “CUL2 (peptide sequence: CIEVLIDK, peptide start residue: 721) (UniProt Q13617)” was tested, and the log2 fold change was -0.202.
